Assay results from the supplement of paper PMC10849652.
The list shows a part of the results.

Sequences of proteins named here, by UniProt entry; tags and fusion partners are left off. A change or cut given only in a name is not applied to a line headed by its entry.
UniProt Q9UNS1: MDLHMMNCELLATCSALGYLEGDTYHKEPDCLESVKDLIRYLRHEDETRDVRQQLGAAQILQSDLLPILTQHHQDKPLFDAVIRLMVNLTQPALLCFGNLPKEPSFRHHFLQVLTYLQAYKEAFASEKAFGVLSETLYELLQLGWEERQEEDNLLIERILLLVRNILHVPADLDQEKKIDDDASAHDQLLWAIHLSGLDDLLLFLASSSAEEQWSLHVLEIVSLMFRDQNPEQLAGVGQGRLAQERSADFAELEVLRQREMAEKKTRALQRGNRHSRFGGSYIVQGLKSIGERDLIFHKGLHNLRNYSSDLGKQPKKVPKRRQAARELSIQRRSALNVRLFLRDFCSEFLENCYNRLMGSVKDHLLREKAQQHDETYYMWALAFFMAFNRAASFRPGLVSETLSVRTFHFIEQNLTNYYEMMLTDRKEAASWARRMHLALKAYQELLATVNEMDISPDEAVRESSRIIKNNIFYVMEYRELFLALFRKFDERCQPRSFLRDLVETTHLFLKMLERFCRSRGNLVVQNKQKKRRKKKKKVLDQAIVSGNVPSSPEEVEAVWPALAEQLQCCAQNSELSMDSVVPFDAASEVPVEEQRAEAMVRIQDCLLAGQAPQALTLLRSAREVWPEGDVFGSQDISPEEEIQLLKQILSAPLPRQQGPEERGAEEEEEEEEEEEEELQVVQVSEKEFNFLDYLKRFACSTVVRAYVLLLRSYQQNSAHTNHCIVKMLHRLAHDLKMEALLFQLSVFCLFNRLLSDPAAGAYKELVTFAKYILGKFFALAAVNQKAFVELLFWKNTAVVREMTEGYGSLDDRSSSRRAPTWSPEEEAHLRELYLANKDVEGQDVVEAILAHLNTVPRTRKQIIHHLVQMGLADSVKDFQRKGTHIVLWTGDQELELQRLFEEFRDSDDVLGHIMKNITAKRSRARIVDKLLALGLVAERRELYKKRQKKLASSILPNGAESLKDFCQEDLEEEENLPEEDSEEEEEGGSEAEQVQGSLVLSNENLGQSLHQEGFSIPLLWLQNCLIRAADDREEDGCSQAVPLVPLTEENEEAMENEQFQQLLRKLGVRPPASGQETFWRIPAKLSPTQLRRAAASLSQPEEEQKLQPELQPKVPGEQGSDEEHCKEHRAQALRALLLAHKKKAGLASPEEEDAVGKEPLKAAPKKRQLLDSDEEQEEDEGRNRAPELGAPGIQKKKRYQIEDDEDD
UniProt Q9HC07: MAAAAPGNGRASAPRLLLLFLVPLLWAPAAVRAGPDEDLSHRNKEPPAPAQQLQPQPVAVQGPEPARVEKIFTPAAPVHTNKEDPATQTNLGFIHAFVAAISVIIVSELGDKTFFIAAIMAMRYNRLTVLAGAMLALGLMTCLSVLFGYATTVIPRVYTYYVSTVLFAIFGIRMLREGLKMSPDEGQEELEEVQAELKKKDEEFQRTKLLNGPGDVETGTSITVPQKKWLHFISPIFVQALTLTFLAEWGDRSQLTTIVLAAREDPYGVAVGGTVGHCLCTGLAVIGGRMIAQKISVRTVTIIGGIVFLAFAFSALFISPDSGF
UniProt Q5JTD0: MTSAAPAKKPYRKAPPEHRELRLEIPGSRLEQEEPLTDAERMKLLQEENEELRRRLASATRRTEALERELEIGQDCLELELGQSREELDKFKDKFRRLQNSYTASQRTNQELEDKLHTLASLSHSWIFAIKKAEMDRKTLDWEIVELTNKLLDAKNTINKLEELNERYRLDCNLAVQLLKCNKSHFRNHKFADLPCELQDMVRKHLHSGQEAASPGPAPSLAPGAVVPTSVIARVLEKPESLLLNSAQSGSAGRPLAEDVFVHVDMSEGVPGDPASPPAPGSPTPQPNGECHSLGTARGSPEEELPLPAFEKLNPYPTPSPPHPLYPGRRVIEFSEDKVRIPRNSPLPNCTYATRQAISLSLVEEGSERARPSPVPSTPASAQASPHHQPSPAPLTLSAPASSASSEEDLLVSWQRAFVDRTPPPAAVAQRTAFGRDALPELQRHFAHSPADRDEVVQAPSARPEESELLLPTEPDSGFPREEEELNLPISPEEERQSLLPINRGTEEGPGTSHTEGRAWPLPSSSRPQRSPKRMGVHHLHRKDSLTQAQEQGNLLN
UniProt O60220: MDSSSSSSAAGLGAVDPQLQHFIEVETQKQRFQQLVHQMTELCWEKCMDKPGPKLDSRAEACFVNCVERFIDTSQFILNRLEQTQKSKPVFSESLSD
UniProt Q15363: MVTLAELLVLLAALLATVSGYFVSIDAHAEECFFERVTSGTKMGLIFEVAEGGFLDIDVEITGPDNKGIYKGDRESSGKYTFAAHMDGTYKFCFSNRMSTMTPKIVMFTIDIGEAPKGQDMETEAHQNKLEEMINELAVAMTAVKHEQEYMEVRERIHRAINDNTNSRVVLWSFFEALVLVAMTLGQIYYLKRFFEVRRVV
UniProt Q9Y584: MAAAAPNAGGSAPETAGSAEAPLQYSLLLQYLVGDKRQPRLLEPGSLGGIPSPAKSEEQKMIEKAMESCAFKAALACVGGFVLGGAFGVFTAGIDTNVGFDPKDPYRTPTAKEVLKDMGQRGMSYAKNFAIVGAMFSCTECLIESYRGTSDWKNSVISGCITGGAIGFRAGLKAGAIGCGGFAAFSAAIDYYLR
UniProt Q8N131: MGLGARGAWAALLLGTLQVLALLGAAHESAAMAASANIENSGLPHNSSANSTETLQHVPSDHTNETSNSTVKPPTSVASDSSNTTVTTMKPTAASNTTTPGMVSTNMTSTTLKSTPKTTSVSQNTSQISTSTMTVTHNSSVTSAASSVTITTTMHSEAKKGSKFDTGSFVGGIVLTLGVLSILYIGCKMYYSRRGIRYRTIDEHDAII
UniProt Q9BZW5, whole entry, looked up: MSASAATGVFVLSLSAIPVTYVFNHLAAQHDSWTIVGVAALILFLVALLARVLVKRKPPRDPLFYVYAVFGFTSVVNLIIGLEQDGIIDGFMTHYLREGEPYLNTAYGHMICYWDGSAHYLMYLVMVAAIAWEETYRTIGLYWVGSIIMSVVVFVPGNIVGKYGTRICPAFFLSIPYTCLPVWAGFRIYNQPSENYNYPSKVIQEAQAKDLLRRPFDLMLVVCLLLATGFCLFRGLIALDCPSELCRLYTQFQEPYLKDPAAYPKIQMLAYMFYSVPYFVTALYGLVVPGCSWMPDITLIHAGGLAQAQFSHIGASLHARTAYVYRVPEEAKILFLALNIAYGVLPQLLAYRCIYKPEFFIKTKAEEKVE
UniProt Q96RS0: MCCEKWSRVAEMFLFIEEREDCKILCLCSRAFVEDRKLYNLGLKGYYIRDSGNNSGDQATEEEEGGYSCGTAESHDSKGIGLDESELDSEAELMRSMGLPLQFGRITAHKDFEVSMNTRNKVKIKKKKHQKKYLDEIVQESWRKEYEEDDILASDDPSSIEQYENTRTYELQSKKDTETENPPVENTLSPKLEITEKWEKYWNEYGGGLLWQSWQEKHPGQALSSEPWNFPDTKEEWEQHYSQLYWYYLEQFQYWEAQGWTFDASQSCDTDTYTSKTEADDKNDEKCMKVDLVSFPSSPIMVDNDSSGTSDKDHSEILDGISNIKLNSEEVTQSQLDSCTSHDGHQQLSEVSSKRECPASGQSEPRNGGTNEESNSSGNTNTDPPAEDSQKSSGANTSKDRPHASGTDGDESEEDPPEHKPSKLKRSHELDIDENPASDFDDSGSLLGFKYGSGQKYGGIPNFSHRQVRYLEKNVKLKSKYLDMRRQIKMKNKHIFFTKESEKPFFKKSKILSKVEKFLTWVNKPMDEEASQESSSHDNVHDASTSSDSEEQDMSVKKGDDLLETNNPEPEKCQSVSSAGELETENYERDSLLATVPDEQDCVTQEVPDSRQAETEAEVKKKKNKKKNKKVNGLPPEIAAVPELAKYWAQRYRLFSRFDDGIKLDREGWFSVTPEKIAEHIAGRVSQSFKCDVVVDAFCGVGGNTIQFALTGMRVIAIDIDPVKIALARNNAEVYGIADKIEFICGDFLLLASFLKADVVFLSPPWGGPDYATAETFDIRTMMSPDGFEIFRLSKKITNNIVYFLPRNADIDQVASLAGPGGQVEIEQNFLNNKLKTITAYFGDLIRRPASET
UniProt Q6YHU6: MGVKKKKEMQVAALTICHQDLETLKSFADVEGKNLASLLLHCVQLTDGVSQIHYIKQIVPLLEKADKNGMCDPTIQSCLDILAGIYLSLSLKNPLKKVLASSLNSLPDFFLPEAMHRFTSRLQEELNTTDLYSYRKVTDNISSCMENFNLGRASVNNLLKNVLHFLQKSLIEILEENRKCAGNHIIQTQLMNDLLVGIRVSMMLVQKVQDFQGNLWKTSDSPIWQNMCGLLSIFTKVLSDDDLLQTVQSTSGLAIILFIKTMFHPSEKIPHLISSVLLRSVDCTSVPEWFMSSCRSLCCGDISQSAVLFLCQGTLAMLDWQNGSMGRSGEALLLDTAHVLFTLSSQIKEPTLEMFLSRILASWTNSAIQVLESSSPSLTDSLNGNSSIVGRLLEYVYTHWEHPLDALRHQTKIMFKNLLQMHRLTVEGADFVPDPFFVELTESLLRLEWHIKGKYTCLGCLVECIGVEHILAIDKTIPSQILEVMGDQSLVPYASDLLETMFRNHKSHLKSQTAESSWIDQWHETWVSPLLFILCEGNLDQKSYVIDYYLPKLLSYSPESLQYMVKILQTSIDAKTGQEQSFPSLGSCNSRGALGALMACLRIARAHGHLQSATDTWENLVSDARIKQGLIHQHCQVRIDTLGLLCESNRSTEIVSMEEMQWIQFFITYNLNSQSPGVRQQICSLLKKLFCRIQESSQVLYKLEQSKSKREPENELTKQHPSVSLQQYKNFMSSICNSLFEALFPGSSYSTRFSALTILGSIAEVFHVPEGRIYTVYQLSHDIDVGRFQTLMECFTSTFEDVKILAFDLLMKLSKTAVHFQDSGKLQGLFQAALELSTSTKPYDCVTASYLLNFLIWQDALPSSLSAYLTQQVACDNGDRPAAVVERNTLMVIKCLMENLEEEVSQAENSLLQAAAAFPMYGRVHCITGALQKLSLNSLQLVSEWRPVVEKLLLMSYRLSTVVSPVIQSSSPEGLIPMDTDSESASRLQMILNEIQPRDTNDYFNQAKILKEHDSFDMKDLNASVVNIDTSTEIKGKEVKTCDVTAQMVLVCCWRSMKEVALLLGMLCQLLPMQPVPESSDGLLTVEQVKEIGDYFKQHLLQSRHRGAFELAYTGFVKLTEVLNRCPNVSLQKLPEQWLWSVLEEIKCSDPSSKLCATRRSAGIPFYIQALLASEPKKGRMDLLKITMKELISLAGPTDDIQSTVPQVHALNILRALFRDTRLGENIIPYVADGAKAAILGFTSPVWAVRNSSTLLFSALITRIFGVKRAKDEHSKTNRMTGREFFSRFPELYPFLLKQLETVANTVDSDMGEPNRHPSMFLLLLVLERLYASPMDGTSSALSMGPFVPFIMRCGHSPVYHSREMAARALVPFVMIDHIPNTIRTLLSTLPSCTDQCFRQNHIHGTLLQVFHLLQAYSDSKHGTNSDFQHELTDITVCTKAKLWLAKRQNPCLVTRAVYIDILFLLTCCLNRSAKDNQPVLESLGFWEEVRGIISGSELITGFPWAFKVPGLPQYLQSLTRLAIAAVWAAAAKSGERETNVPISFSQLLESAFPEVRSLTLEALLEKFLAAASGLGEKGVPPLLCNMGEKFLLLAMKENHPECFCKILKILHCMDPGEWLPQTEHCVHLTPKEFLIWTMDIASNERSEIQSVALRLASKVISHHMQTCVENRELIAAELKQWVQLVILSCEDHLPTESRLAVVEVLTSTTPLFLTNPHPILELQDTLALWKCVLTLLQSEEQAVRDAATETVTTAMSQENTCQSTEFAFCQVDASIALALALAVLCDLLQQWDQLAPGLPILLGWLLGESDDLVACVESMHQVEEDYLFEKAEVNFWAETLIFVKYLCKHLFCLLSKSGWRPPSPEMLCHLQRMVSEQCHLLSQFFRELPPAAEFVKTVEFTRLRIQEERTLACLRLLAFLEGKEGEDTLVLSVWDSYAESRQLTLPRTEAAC
UniProt P01137, whole entry, looked up: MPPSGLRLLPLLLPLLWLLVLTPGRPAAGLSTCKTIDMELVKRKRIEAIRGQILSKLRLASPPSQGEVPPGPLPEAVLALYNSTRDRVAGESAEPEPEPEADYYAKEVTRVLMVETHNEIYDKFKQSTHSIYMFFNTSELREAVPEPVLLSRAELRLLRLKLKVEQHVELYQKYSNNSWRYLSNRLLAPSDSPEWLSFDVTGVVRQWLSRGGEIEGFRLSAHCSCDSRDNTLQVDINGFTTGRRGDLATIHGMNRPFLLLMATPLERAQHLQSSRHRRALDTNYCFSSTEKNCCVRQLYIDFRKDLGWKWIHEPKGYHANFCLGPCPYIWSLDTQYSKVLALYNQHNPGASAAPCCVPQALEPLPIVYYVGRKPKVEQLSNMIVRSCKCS
UniProt P49755: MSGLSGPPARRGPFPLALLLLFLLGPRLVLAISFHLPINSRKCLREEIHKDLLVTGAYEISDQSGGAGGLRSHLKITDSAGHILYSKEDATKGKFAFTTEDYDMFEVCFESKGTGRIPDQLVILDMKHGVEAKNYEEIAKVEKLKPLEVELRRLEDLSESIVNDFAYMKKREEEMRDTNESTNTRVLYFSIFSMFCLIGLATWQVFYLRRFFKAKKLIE

Experiments:
Experiment in all cases: log2 fold change, soluble protein after heating vs DMSO (PISA); higher = thermal stabilisation; K562 lysate, 10 uM; active = over 0.2 and 3.5 SD of the protein, either way, in both replicates (recomputed)
[1] = compound: C1=CC=C(C=C1)[C@H](COC2=CC3=C(C=C2)NC(=O)N3)NC(=O)C4=CC=CN(C4=O)CC5=CC(=C(C=C5)F)F
Summary of the method: (§1)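 Quantification was by TMTpro 16plex LC-MS/MS with equalised channel sums, applied to the supernatant after 21,000xg for 90 min. Samples were crude K562 extract at 1 mg/mL protein in PBS pH 7.4 with 1 mM MgCl2, treated with 10 μM compound for 30 min, heated for 3 min across 48°C-58°C, pooled and brought to 0.5% NP-40 at 4°C. Values are log-two fold changes in thermal stability relative to solvent controls, from duplicates.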

[2] = compound: CC1=C(SC2=C1C(=N[C@H](C3=NN=C(N32)C)CC(=O)N)C4=CC=C(C=C4)Cl)C
Summary of the method: as §1

[3] = compound: CC1=C2C(=CC=C1)N=C(N(C2=O)C3=CC=CC=C3C)CN4C=NC5=C(N=CN=C54)N
Summary of the method: as §1

[4] = compound: Cc1sc2c(c1C)C(c1ccc(Cl)cc1)=N[C@@H](CC(=O)OC(C)(C)C)c1nnc(C)n1-2
Summary of the method: as §1

[5] = compound: c1ccc([C@@H]2C[C@H]2NC2CCNCC2)cc1
Summary of the method: as §1

Measured: log2 fold change

TIMELESS (UniProt Q9UNS1)
inactive: [1] -0.013 | [2] 0.011 | [3] 0.01 | [4] 0.012 | [5] 0.02

TMEM165 (UniProt Q9HC07)
inactive: [1] 0.01 | [2] 0.014 | [3] 0.014 | [4] -0.014 | [5] -0.027

TIMM17B (UniProt O60830)
inactive: [1] 0.044 | [2] 0.003 | [3] -0.045 | [4] -0.052 | [5] -0.048

TMA7 (UniProt Q9Y2S6)
inactive: [1] -0.046 | [2] 0.021 | [3] 0.007 | [4] -0.003 | [5] -0.091

TLK1 isoform 2 (UniProt Q9UKI8)
inactive: [1] 0.005 | [2] -0.02 | [3] -0.026 | [4] -0.025 | [5] -0.072

THYN1 (UniProt Q9P016)
inactive: [1] 0.021 | [2] 0.008 | [3] 0.002 | [4] 0.016 | [5] 0.036

TIAL1 isoform 2 (UniProt Q01085)
inactive: [1] 0.068 | [2] 0.017 | [3] -0.02 | [4] 0.031 | [5] -0.021

TJAP1 (UniProt Q5JTD0)
inactive: [1] 0.046 | [2] 0.008 | [3] 0.036 | [4] -0.006 | [5] -0.01

TLCD4 (UniProt Q96MV1)
inactive: [1] -0.015 | [2] -0.031 | [3] 0.031 | [4] -0.01 | [5] -0.086

TIMM8A (UniProt O60220)
inactive: [1] 0.106 | [2] -0.044 | [3] -0.012 | [4] -0.04 | [5] 0.085

TMED2 (UniProt Q15363)
inactive: [1] -0.018 | [2] -0.001 | [3] 0.042 | [4] 0.016 | [5] 0.012

TMEM179B (UniProt Q7Z7N9)
inactive: [1] 0.034 | [2] -0.086 | [3] -0.137 | [4] -0.005 | [5] -0.127

Copied from the entries so far (six entries):
TMA7 (UniProt Q9Y2S6)
inactive: [1] -0.046 | [2] 0.021 | [3] 0.007 | [4] -0.003 | [5] -0.091

TLK1 isoform 2 (UniProt Q9UKI8)
inactive: [1] 0.005 | [2] -0.02 | [3] -0.026 | [4] -0.025 | [5] -0.072

THYN1 (UniProt Q9P016)
inactive: [1] 0.021 | [2] 0.008 | [3] 0.002 | [4] 0.016 | [5] 0.036

TIAL1 isoform 2 (UniProt Q01085)
inactive: [1] 0.068 | [2] 0.017 | [3] -0.02 | [4] 0.031 | [5] -0.021

TJAP1 (UniProt Q5JTD0)
inactive: [1] 0.046 | [2] 0.008 | [3] 0.036 | [4] -0.006 | [5] -0.01

TLCD4 (UniProt Q96MV1)
inactive: [1] -0.015 | [2] -0.031 | [3] 0.031 | [4] -0.01 | [5] -0.086

The list goes on:

THOC2 (UniProt Q8NI27)
inactive: [1] 0.02 | [2] 0 | [3] 0.004 | [4] 0.017 | [5] 0.004

TIMM22 (UniProt Q9Y584)
inactive: [1] 0.049 | [2] 0.055 | [3] 0.128 | [4] 0.118 | [5] 0.002

TMEM123 (UniProt Q8N131)
inactive: [1] 0.125 | [2] -0.033 | [3] -0.021 | [4] -0.01 | [5] 0.079

TM6SF1 (UniProt Q9BZW5)
inactive: [1] 0.238 | [2] -0.036 | [3] 0.018 | [4] -0.006 | [5] -0.058

TGS1 (UniProt Q96RS0)
inactive: [1] -0.051 | [2] 0.017 | [3] 0.017 | [4] -0.018 | [5] -0.027

TMEM164 (UniProt Q5U3C3)
inactive: [1] -0.13 | [2] -0.155 | [3] 0.111 | [4] -0.217 | [5] -0.543

TGOLN2 isoform 7 (UniProt O43493)
inactive: [1] 0.065 | [2] -0.029 | [3] -0.015 | [4] -0.017 | [5] -0.069

TIMM17A (UniProt Q99595)
inactive: [1] -0.022 | [2] 0.033 | [3] 0.03 | [4] -0.035 | [5] -0.005

TGFBR3 (UniProt Q03167)
inactive: [1] -0.067 | [2] 0.066 | [3] 0.083 | [4] -0.026 | [5] -0.015

THADA (UniProt Q6YHU6)
inactive: [1] -0.028 | [2] -0.016 | [3] 0.069 | [4] 0.007 | [5] 0.028

TGFB1 (UniProt P01137)
inactive: [1] 0.018 | [2] 0.02 | [3] -0.011 | [4] -0.022 | [5] -0.023

TMED10 (UniProt P49755)
inactive: [1] 0.029 | [2] -0.034 | [3] 0.034 | [4] 0.014 | [5] 0.085
